From the supplement of paper PMC10849652 come the findings set out here.

By UniProt entry, the sequences of proteins in these tests, tags left out. Where a name states a change or a piece, a line headed by the entry shows the natural chain unless it says otherwise.
UniProt Q9NVR2, whole entry, looked up: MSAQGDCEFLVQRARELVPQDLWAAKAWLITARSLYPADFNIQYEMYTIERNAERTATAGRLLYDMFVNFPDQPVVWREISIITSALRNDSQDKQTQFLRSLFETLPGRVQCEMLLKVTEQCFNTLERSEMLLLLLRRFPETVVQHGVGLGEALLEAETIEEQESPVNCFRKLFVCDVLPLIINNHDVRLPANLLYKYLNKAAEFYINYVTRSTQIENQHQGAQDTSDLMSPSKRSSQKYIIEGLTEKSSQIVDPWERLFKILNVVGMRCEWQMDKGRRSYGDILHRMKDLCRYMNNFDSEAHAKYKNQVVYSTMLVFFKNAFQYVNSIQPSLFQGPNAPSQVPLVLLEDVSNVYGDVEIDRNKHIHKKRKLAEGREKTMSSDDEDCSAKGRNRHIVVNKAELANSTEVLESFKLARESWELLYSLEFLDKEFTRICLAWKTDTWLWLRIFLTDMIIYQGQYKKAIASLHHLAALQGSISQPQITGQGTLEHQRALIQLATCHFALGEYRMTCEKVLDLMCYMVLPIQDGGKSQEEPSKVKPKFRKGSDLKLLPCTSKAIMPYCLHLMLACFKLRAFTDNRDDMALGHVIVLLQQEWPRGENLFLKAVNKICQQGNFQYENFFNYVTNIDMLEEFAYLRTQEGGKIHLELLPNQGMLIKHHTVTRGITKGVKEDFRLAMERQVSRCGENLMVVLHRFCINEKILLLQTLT
UniProt P38646: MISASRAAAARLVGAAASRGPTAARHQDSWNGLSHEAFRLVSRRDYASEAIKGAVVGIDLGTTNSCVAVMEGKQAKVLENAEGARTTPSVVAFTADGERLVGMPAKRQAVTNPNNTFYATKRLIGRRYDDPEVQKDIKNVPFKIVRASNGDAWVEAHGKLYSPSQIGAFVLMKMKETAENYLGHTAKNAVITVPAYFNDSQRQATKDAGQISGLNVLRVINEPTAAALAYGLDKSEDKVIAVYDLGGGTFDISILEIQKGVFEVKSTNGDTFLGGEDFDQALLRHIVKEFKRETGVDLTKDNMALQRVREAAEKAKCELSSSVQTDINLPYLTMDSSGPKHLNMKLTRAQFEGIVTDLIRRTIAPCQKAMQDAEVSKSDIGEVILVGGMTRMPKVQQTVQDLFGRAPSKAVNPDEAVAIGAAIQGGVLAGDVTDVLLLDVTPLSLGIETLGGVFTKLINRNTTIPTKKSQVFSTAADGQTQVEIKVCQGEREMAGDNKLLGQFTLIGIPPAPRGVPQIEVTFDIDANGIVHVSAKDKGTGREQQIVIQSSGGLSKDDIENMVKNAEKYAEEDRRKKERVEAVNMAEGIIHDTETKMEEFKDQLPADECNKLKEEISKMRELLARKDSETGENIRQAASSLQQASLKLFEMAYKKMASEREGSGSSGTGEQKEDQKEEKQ
UniProt Q9UMF0: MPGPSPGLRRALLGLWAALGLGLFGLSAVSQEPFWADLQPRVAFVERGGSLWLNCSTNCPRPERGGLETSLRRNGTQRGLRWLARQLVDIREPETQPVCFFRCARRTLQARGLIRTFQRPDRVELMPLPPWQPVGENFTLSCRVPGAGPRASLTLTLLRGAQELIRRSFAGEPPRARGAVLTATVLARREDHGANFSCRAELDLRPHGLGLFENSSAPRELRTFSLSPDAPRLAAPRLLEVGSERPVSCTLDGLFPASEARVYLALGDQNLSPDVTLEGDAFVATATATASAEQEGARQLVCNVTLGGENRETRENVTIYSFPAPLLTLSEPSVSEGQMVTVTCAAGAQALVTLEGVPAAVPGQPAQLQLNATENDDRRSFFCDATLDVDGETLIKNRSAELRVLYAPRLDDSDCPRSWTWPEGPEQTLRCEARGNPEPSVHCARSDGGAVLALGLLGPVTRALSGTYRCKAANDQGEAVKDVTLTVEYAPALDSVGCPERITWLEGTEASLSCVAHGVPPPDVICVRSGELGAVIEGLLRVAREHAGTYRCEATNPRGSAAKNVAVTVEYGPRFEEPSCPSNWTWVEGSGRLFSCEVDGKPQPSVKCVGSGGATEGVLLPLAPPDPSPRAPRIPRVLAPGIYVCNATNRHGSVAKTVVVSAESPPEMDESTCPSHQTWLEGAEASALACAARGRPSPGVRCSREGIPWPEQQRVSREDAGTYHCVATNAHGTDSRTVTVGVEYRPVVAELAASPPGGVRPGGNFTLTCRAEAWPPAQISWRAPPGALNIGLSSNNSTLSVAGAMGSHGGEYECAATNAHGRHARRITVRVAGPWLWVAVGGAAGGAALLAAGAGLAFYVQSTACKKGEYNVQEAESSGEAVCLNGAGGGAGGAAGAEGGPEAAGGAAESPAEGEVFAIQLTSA
UniProt P48735: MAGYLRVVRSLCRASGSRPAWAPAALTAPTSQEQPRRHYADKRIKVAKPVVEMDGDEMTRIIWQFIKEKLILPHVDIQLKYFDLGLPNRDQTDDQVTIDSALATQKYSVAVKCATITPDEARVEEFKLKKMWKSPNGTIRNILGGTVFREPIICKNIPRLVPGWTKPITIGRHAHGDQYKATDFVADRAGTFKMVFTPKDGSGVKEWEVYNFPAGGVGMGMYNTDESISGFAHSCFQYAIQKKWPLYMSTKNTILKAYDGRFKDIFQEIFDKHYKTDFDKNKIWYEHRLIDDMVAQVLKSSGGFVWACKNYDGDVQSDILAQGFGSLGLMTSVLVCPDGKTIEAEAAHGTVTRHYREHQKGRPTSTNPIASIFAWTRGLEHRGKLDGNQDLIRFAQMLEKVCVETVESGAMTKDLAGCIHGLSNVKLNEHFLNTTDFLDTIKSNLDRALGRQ
UniProt Q8IY31, whole entry, looked up: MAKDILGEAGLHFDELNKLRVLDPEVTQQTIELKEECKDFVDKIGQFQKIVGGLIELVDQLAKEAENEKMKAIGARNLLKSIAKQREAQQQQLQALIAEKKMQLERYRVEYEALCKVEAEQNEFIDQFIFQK
UniProt Q8N201, whole entry, looked up: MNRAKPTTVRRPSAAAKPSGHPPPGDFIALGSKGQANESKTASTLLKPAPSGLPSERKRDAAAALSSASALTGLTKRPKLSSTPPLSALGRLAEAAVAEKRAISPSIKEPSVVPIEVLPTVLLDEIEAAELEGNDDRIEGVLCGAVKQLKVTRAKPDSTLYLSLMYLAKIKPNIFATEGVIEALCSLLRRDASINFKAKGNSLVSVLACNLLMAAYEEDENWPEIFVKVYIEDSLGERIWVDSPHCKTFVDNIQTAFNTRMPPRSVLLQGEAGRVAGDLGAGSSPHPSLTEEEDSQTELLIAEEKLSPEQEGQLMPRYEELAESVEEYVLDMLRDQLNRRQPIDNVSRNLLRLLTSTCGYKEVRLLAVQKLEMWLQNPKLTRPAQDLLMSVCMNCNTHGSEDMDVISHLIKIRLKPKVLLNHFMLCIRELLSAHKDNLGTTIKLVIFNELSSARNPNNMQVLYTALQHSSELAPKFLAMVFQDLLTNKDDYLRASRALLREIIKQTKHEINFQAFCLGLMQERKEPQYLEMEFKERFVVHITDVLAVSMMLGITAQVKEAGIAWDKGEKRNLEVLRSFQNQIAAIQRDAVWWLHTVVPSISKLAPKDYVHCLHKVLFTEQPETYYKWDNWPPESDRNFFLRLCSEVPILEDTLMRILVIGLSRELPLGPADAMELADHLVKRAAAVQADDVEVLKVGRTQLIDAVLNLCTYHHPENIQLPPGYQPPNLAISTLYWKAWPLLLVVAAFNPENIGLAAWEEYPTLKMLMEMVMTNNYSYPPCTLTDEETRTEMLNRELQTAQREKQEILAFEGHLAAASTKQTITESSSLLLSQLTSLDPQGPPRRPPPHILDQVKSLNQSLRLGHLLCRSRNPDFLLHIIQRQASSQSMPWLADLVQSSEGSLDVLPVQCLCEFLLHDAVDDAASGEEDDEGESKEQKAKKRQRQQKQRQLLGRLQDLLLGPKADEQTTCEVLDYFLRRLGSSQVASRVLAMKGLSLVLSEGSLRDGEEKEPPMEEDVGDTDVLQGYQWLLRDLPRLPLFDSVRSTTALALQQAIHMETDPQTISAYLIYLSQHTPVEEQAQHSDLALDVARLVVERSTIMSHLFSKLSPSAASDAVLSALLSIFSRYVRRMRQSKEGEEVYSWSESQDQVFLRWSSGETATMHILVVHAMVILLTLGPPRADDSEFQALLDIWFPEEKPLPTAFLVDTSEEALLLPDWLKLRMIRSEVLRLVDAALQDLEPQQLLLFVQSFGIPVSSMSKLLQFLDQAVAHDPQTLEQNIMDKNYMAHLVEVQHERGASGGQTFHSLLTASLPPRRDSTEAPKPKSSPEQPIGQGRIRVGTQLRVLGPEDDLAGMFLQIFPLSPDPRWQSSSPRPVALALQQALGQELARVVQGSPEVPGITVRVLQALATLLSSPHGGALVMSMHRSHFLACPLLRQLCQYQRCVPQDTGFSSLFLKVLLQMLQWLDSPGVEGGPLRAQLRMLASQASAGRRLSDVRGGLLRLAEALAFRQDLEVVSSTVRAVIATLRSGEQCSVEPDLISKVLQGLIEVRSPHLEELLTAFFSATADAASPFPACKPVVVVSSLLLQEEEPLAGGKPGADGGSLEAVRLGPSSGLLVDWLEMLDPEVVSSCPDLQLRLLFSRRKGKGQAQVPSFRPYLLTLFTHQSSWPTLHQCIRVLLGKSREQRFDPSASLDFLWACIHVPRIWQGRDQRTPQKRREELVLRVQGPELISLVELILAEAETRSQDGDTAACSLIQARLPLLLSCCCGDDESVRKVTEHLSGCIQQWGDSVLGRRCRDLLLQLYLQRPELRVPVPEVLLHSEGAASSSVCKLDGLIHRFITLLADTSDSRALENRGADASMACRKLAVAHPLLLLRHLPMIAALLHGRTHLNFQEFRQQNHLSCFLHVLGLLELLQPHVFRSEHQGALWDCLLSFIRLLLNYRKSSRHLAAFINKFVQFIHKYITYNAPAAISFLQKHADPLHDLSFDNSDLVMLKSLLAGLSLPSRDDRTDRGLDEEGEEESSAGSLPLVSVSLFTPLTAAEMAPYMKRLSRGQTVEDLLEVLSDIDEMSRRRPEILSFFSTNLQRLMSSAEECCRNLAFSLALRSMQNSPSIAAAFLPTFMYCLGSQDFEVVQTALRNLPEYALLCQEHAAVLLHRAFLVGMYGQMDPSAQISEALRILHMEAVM
UniProt O60921: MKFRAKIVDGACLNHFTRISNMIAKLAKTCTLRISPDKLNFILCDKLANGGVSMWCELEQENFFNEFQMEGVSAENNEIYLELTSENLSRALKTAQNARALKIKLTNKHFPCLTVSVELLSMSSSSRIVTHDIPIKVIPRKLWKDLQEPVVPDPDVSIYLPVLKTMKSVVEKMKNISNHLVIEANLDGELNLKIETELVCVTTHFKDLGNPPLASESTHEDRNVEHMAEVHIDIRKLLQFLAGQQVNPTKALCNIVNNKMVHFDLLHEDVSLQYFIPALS
UniProt Q9NSE4: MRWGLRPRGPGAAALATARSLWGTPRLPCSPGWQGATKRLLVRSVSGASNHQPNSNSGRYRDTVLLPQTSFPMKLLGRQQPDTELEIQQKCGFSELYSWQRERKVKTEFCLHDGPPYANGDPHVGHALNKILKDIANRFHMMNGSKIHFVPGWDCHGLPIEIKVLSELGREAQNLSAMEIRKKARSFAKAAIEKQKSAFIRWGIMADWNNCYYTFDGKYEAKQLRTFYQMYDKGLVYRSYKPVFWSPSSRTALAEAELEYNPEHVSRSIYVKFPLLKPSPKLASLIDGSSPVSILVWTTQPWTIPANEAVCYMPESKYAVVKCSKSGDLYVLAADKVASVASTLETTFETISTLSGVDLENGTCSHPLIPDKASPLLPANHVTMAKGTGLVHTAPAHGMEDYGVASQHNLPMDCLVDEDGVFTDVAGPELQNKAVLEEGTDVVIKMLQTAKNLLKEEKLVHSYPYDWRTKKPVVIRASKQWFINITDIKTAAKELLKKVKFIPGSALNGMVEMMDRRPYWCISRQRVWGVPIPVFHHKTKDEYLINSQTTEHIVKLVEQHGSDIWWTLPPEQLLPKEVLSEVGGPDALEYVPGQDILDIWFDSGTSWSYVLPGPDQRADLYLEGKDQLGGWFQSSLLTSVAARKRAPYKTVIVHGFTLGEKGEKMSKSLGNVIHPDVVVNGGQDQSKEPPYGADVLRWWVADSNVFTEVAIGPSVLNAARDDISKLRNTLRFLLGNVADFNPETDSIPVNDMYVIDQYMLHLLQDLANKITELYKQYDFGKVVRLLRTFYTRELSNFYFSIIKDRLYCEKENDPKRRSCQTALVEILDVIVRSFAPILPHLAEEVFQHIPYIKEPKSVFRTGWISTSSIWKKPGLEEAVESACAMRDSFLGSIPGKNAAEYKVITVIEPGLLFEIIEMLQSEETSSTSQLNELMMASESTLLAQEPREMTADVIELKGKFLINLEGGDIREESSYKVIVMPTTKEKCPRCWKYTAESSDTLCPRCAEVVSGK

Holding throughout (test): log2 fold change, soluble protein after heating vs DMSO (PISA); higher = thermal stabilisation; K562 lysate, 10 uM; active = over 0.2 and 3.5 SD of the protein, either way, in both replicates (recomputed)
Compound in one assay: CCCS(=O)(=O)Nc1ccc(F)c(C(=O)c2c[nH]c3ncc(-c4ccc(Cl)cc4)cc23)c1F [vemurafenib]
The essentials:
(§1)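 Log-two fold change in thermal stability relative to solvent controls is reported from duplicates. For each sample, crude K562 extract from dounce-homogenised pellets in PBS pH 7.4 with 1 mM MgCl2, at 1 mg/mL protein, was treated with 10 μM compound for 30 min. Aliquots heated for 3 min across 48°C-58°C were pooled, brought to 0.5% NP-40 at 4°C and cleared at 21,000xg for 90 min. The supernatant was quantified by TMTpro 16plex LC-MS/MS with channel sums equalised.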

Compound in assay [1]: CCCS(=O)(=O)Nc1ccc(F)c(C(=O)c2c[nH]c3ncc(Cl)cc23)c1F
The procedure, abridged:
as §1

Compound in another assay: CCN(CCCOc1ccc2c(Nc3cc(CC(=O)Nc4cccc(F)c4)[nH]n3)ncnc2c1)CCOP(=O)(O)O [barasertib]
The procedure, abridged: as §1

Compound in assay [2]: CC[C@@H]1C(=O)N(C)c2cnc(Nc3ccc(C(=O)NC4CCN(C)CC4)cc3OC)nc2N1C1CCCC1
The essentials: as §1

Compound in another assay: CC[C@@H]1C(=O)N(C)c2cnc(Nc3ccc(C(=O)N[C@H]4CC[C@H](N5CCN(CC6CC6)CC5)CC4)cc3OC)nc2N1C(C)C [volasertib]
The procedure, abridged: as §1

Compound in assay [3]: CCn1c(C(=O)N(C2CC2)C2CC2)cc2c3c(ncn3C)c(Nc3cc(C)n(C)n3)nc21
The essentials:
as §1

Compound in assay [4]: CCn1cc(-c2ccnc3[nH]c(-c4cccc(CN(C)C)c4)cc23)c(-c2ccc(NC(=O)N(C)C)cc2)n1
The essentials:
as §1

Compound in assay [5]: CN1CCC(CNc2ccc3ncc(-c4cccc(OC(F)(F)F)c4)n3n2)CC1
The essentials:
as §1

Compound in another assay: CN1CCN(CCOc2cc(OC3CCOCC3)c3c(Nc4c(Cl)ccc5c4OCO5)ncnc3c2)CC1 [saracatinib]
The essentials:
as §1

Compound in another assay: CN1CCN(c2nc(C3=C(c4c[nH]c5ccccc45)C(=O)NC3=O)c3ccccc3n2)CC1 [sotrastaurin]
The procedure, abridged: as §1

This is one part of the list.

Consider INTS10 (UniProt Q9NVR2), for which the log2 fold change in the assay with vemurafenib was inactive: -0.008; in assay [1], inactive: -0.183; with barasertib it was inactive: 0.061; in assay [2], inactive: -0.129; in the assay with volasertib, inactive: -0.088; in assay [3] it was inactive: -0.021. Also, the log2 fold change was inactive: 0.14 in assay [4], inactive: -0.054 in [5], inactive: 0.052 with saracatinib and inactive: 0.023 with sotrastaurin.
Take HSPA9 (UniProt P38646): the log2 fold change with vemurafenib is inactive: -0.003; in assay [1], inactive: -0.015; in the assay with barasertib it was inactive: -0.032; in assay [2], inactive: 0.024; with volasertib, inactive: 0.004; in assay [3] it was inactive: 0.008. For the same target, the log2 fold change in assay [4] is inactive: 0.021; in assay [5], inactive: -0.014; with saracatinib it was inactive: -0.001; with sotrastaurin, inactive: 0.
Regarding ICAM5 (UniProt Q9UMF0), the log2 fold change in the assay with vemurafenib was inactive: 0.212; in [1], inactive: -0.005; in the assay with barasertib, inactive: -0.011; in assay [2] it was inactive: 0.063; with volasertib, inactive: -0.038; in assay [3] it was inactive: -0.156. The log2 fold change in assay [4] is inactive: 0.549; in [5] it was inactive: -0.048; in the assay with saracatinib, inactive: -0.034; with sotrastaurin it was inactive: 0.036.
For the target IDH2 (UniProt P48735), the log2 fold change in the assay with vemurafenib was inactive: 0.001; in assay [1] it was inactive: -0.003; in the assay with barasertib it was inactive: -0.036; in [2] it was inactive: -0.083; with volasertib, inactive: -0.09; in assay [3], inactive: 0.025. The log2 fold change was inactive: 0.097 in assay [4], inactive: -0.168 in assay [5], inactive: -0.096 with saracatinib and inactive: 0.046 in the assay with sotrastaurin.
Turning to IFI30 (UniProt P13284), the log2 fold change with vemurafenib is inactive: -0.066; in assay [1] it was inactive: -0.013; with barasertib, inactive: 0.199; in assay [2], inactive: 0.076; with volasertib it was inactive: 0.001; in [3], inactive: -0.003. Further, the log2 fold change in [4] is inactive: -0.23; in [5], inactive: 0.059; in the assay with saracatinib, inactive: -0.013; with sotrastaurin, inactive: 0.092.
On to IFT20 isoform 2 (UniProt Q8IY31), for which the log2 fold change with vemurafenib was inactive: -0.012; in assay [1] it was inactive: 0.03; in the assay with barasertib, inactive: -0.189; in [2], inactive: 0.01; in the assay with volasertib it was inactive: 0.001; in [3], inactive: 0.037. Besides, the log2 fold change in assay [4] was inactive: 0.274; in [5], inactive: 0.132; with saracatinib, inactive: 0.058; with sotrastaurin, inactive: -0.081.
For INTS1 (UniProt Q8N201), the log2 fold change in the assay with vemurafenib is inactive: 0.042; in assay [1] it was inactive: -0.096; with barasertib, inactive: -0.01; in assay [2], inactive: 0.044; with volasertib it was inactive: -0.033; in assay [3] it was inactive: 0.007. The log2 fold change in [4] is inactive: 0.06; in assay [5] it was inactive: -0.041; with saracatinib it was inactive: 0; with sotrastaurin, inactive: -0.002.
With HUS1 (UniProt O60921), the log2 fold change with vemurafenib is inactive: -0.016; in assay [1], inactive: 0.006; with barasertib, inactive: -0.012; in assay [2], inactive: -0.056; in the assay with volasertib, inactive: -0.011; in assay [3], inactive: -0.014. The log2 fold change in [4] is inactive: -0.002; in [5], inactive: 0.065; with saracatinib, inactive: 0.033; with sotrastaurin, inactive: 0.009.
As for INPP5B (UniProt P32019), the log2 fold change was inactive: 0.026 with vemurafenib; inactive: 0.041 in [1]; inactive: 0.015 with barasertib; inactive: -0.016 in assay [2]; inactive: -0.037 in the assay with volasertib; inactive: 0.022 in assay [3]. Besides, the log2 fold change was inactive: -0.139 in [4], inactive: 0.095 in [5], inactive: 0.021 with saracatinib and inactive: 0.038 in the assay with sotrastaurin.
Consider IFRD1 (UniProt O00458), for which the log2 fold change in the assay with vemurafenib was inactive: -0.127; in [1], inactive: -0.048; with barasertib, inactive: -0.036; in assay [2], inactive: -0.064; with volasertib, inactive: -0.048; in [3] it was inactive: -0.006. The log2 fold change in [4] is inactive: 0.094; in [5], inactive: -0.076; in the assay with saracatinib, inactive: -0.024; with sotrastaurin, inactive: 0.008.
INTS13 (UniProt Q9NVM9): the log2 fold change was inactive: -0.029 in the assay with vemurafenib; inactive: 0.026 in assay [1]; inactive: 0.014 with barasertib; inactive: 0.004 in assay [2]; inactive: -0.045 with volasertib; inactive: 0.005 in assay [3]. In addition, the log2 fold change in [4] is inactive: -0.018; in assay [5], inactive: -0.024; with saracatinib, inactive: 0.026; with sotrastaurin it was inactive: 0.006.
In the case of IK (UniProt Q13123), the log2 fold change with vemurafenib was inactive: 0.007; in assay [1] it was inactive: -0.029; with barasertib, inactive: -0.024; in assay [2] it was inactive: 0.022; in the assay with volasertib it was inactive: -0.039; in [3], inactive: 0.024. In addition, the log2 fold change was inactive: -0.035 in [4], inactive: -0.004 in assay [5], inactive: -0.013 with saracatinib and inactive: -0.015 with sotrastaurin.
IARS2 (UniProt Q9NSE4): the log2 fold change is inactive: -0.007 with vemurafenib; inactive: -0.005 in [1]; inactive: 0.037 with barasertib; inactive: -0.003 in assay [2]; active: 0.312 with volasertib; inactive: -0.013 in [3]. The log2 fold change in [4] was inactive: 0.198; in assay [5], inactive: -0.032; with saracatinib it was inactive: -0.002; with sotrastaurin it was inactive: 0.003.
On to ING3 (UniProt Q9NXR8), for which the log2 fold change with vemurafenib was inactive: -0.022; in assay [1], inactive: -0.143; in the assay with barasertib it was inactive: 0.056; in [2] it was inactive: 0.034; with volasertib it was inactive: -0.016; in [3], inactive: -0.068. In addition, the log2 fold change in assay [4] is inactive: -0.153; in assay [5], inactive: -0.112; with saracatinib, inactive: -0.008; with sotrastaurin it was inactive: -0.022.
As for IARS (UniProt P41252), the log2 fold change with vemurafenib was inactive: 0.004; in assay [1], inactive: 0.011; with barasertib, inactive: 0.026; in assay [2], inactive: -0.086; in the assay with volasertib, inactive: -0.079; in assay [3], inactive: 0.048. Also, the log2 fold change in [4] is inactive: 0.044; in [5], inactive: -0.111; with saracatinib it was inactive: 0.006; in the assay with sotrastaurin it was inactive: 0.014.
